PubChem BioAssay AID1259259 – Sanger Institute – 2017
Screen: 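Synthetic lethal kinase partners of anchor drugs in colorectal cancer cells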 (primary screen). System: SW1463 human colorectal cancer cells. Knock-down reagent: siRNA pool against human genes. Conditions: DMSO vehicle, or one anchor drug: BYL719 at 1 µM, cetuximab at 5 µg/ml, or trametinib at 10 nM. Read-out: 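Viability as fraction of control pool 2 (non-targeting), replicate mean; knock-down robust z-score without any drug; synergy score averaged for each anchor drug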. Scale: robust z-score, knock-down alone: higher = more viable cells after knock-down; viability, knock-down alone: higher = more viable cells. Units: viability, knock-down alone in fraction of control. Active means: 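a robust z-score under -3 for knock-down with no drug marks the gene as essential, meaning viability loss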. Meaning of the calls: active = essential: viability loss from knock-down alone; inactive = no change from knock-down alone.
Here is an unselected part of 794 reagents. 9 of them (1.1%) were called active. 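Calls rest on knock-down alone, not drug synergy; viability values seem capped at 1.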 Not all columns of the deposit are shown. Not stated in the record: the amount of reagent, the time to read-out.

Depletion of ACVR1 (activin A receptor type 1) came out at: robust z-score, knock-down alone -0.0627; viability, knock-down alone 0.924; inactive.
After knock-down of STRADA (STE20 related adaptor alpha) the results were robust z-score, knock-down alone 1.13; viability, knock-down alone 1; inactive.
Against PRKAR2A, the values are robust z-score, knock-down alone 0.438; viability, knock-down alone 0.956; inactive.
Silencing of BTK (Bruton tyrosine kinase) resulted in: robust z-score, knock-down alone -0.251; viability, knock-down alone 0.911; inactive.
Depletion of DDR1 (discoidin domain receptor tyrosine kinase 1) resulted in: robust z-score, knock-down alone 1.13; viability, knock-down alone 1; inactive.
Against BRD2 (bromodomain containing 2), the values are robust z-score, knock-down alone -0.5; viability, knock-down alone 0.896; inactive.
With knock-down of CDK3 (cyclin dependent kinase 3), the screen gave robust z-score, knock-down alone 1.13; viability, knock-down alone 1; inactive.

Part of the list above, reformatted.
gene symbol,"robust z-score, knock-down alone","viability, knock-down alone",Call
STRADA (STE20 related adaptor alpha),1.13,1,inactive
PRKAR2A,0.438,0.956,inactive

More entries follow.
For KIT (KIT proto-oncogene, receptor tyrosine kinase), the values are robust z-score, knock-down alone 0.897; viability, knock-down alone 0.985; inactive.
For TBK1 (TANK binding kinase 1), the values are robust z-score, knock-down alone 1.13; viability, knock-down alone 1; inactive.
SGK1 (serum/glucocorticoid regulated kinase 1) showed robust z-score, knock-down alone -0.377; viability, knock-down alone 0.903; inactive.
Knock-down of PDGFRA (platelet derived growth factor receptor alpha) resulted in: robust z-score, knock-down alone 1.13; viability, knock-down alone 1; inactive.
After knock-down of ATRX (ATRX chromatin remodeler) the results were robust z-score, knock-down alone 0.602; viability, knock-down alone 0.966; inactive.
Knock-down of NEK10 (NIMA related kinase 10) resulted in: robust z-score, knock-down alone 0.194; viability, knock-down alone 0.94; inactive.
ALPK3 (alpha kinase 3) gave robust z-score, knock-down alone -0.85; viability, knock-down alone 0.873; inactive.
After knock-down of PKIB (cAMP-dependent protein kinase inhibitor beta), the record shows robust z-score, knock-down alone -0.286; viability, knock-down alone 0.909; inactive.
Silencing of NRAS (NRAS proto-oncogene, GTPase) resulted in: robust z-score, knock-down alone 1.13; viability, knock-down alone 1; inactive.
Against SRGAP3 (SLIT-ROBO Rho GTPase activating protein 3), the values are robust z-score, knock-down alone 1.13; viability, knock-down alone 1; inactive.
For CKB (creatine kinase B) the deposit lists robust z-score, knock-down alone -0.386; viability, knock-down alone 0.903; inactive.
Silencing of NUCKS1 resulted in: robust z-score, knock-down alone -0.154; viability, knock-down alone 0.918; inactive.
